Measurements: patent publication EP2630965A1, “A polypeptide for the protection from neurodegeneration in patients with amyotrophic lateral sclerosis (ALS)” (Curatis Pharma GmbH, priority 2012, dated 2013)
Where two headings read alike, the source gives them in different places. At least one peptide structure holds a part that was inferred or is arguable (an end, a ring closure or a residue).

Key:
Type in all cases: cell-based, mouse
wild type motor neurons = details: for neuroprotective effects: 300 nM peptide
[1] = test system: SOD1-G93A transgenic motor neurons; details: for neuroprotective effects: 300 nM peptide
motor neurons = test: Calcium imaging (FURA 2 AM) of intracellular Ca2+ transients
[2] = 300 µM KA, cultures with transgenic astrocytes
[3] = 300 µM KA, cultures with wild-type astrocytes
[4] = between 10 and 100nM peptide, 300 µM KA, co-cultures with wild type or G93A astrocytes

SMILES: CC[C@H](C)[C@H](NC(=O)[C@H](Cc1ccccc1)NC(=O)[C@H](CCC(=O)O)NC(=O)[C@H](CCCCN)NC(=O)[C@H](C)NC(=O)[C@H](C)NC(=O)[C@H](CCC(N)=O)NC(=O)CNC(=O)[C@H](CCC(=O)O)NC(=O)[C@H](CC(C)C)NC(=O)[C@H](Cc1ccc(O)cc1)NC(=O)[C@H](CO)NC(=O)[C@H](CO)NC(=O)[C@@H](NC(=O)[C@H](CC(=O)O)NC(=O)[C@H](CO)NC(=O)[C@@H](NC(=O)[C@H](Cc1ccccc1)NC(=O)[C@@H](NC(=O)CNC(=O)[C@H](CCC(=O)O)NC(=O)[C@H](C)NC(=O)[C@H](Cc1c[nH]cn1)NC(C)=O)[C@@H](C)O)[C@@H](C)O)C(C)C)C(=O)N[C@@H](C)C(=O)N[C@@H](Cc1c[nH]c2ccccc12)C(=O)N[C@@H](CC(C)C)C(=O)N[C@H](C(=O)N[C@@H](CCCCN)C(N)=O)C(C)C [N-acetyl-GLP-1(7-34)amide]
- neuroprotective effects (wild type motor neurons; [2]): neuroprotective effects only in cultures with transgenic astrocytes
- neuroprotective effects (wild type motor neurons; [3]): not in cultures with wild-type astrocytes
- neuroprotective effects against KA-toxicity (wild type motor neurons; 300 µM KA, 10, 100, 300 nM peptide, 24h from DIV 7, wild type motor neurons): Neuroprotective effects
- number of surviving motor neurons (wild type motor neurons; [4]): increase in the number of surviving motor neurons
- neuroprotective effects [1, 2]: neuroprotective effects only in cultures with transgenic astrocytes
- neuroprotective effects [1, 3]: not in cultures with wild-type astrocytes
- neuroprotective effects against KA-toxicity ([1]; 300 µM KA, 10, 100, 300 nM peptide, 24h from DIV 7, transgenic motor neurons): Neuroprotective effects
- number of surviving motor neurons [1, 4]: increase in the number of surviving motor neurons
- KA-induced Ca^2+ influx (motor neurons; 10nM peptide for 70s after 100s of 30µM KA, non-spontaneously active motor neurons < DIV10, monoculture): decrease of the Ca^2+ influx
- spontaneous intracellular Ca^2+ transients (motor neurons; 150s pulse of 20 nM peptide after 100s of spontaneous influx, spontaneously active cells from DIV 10): reduction of intracellular Ca^2+ transients
